From article PMC10745200
No constants are given. Whether binding was seen depends on the method and setting. Binding seen in cells or lysates may run through a third protein. Binding can be weak; no strength is given. Where a sequence is shown, tags or fusion partners need not be part of it.

Sequences of proteins named here, by UniProt entry; tags and fusion partners are left off. A change or cut given only in a name is not applied to a line headed by its entry.
UniProt Q9UK99: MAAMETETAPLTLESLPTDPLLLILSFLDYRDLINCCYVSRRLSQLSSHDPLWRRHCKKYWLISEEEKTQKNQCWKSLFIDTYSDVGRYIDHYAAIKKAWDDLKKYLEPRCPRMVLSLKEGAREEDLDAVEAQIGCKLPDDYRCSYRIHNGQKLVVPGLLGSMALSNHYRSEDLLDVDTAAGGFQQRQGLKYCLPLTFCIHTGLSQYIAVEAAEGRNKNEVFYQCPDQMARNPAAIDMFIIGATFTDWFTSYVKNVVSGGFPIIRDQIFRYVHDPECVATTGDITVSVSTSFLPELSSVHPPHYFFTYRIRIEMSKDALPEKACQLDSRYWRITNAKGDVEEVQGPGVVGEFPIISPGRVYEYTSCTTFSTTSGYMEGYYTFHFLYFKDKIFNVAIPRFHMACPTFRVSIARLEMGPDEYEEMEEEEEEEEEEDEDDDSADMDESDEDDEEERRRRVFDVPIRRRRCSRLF

Target: T1, Flag-USP4 (UniProt Q13107)
T1 sequence: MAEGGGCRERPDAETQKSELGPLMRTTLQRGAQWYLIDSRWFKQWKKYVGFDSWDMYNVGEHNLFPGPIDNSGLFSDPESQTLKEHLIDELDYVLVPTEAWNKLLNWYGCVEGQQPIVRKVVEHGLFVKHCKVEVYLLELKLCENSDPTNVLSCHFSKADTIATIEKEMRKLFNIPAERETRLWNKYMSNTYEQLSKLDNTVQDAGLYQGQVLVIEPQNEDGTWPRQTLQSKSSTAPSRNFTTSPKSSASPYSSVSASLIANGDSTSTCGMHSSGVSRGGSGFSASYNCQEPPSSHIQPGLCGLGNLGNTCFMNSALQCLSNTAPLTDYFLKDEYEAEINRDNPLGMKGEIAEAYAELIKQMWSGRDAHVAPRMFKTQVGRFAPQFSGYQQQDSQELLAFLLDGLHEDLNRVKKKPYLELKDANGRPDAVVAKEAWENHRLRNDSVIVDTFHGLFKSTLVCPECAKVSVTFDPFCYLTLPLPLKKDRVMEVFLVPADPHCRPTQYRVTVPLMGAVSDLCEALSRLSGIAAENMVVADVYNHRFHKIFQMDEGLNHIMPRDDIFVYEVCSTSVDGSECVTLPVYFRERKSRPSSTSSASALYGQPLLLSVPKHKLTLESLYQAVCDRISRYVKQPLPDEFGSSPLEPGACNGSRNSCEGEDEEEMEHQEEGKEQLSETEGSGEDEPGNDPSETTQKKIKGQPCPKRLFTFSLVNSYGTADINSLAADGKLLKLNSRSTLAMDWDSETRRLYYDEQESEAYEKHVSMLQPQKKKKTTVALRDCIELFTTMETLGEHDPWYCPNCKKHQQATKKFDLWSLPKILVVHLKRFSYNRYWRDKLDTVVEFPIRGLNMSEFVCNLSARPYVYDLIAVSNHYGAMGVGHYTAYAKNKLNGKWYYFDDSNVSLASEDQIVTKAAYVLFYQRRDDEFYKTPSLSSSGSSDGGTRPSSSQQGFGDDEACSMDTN
Experiment: co-IP; Fig 4F: HEK293T co-transfected with Flag-USP4 and HA-FBXO3, HA-FBXO3^ΔApaG, HA-FBXO3^ΔF or vector for 36 h, then 0.5 μm Tosedostat for 16 h; IP-western; FLAG/HA M2-conjugated agarose beads, 4°C overnight; which tag was precipitated is not told

| binding | Substance |
| --- | --- |
| binds | HA-FBXO3^ΔF (from UniProt Q9UK99) |
| no binding | HA-FBXO3^ΔApaG (from UniProt Q9UK99) |
